Read-outs that look alike come from different tables or passages of the source. These are yes or no findings as the source states them, for the method shown. In cells and extracts the contact can be indirect. These calls come from enrichment with a bait or labelling near it, and not all partners need be listed. One block for each molecule: values may come before it.
How the values were obtained:
[1] = target: Cyclin D1 (CCND1) (human (endogenous in IMR90)) (UniProt P24385); experiment: affinity purification with mass spectrometry; CCND1 IP from senescent IMR90 lysate (EBC100) with two antibodies (rabbit and mouse) on Dynabeads Protein G against IgG control IPs; three washes NETN, two washes TBS; on-bead trypsin/Lys-C digest, LC-MS/MS
[2] = target: Cyclin D1 (CCND1) (human (endogenous in IMR90)) (UniProt P24385); experiment: as above; remark: listed apart in the source

Chains of the proteins cited; added tags and fusions are not shown.
UniProt P24385: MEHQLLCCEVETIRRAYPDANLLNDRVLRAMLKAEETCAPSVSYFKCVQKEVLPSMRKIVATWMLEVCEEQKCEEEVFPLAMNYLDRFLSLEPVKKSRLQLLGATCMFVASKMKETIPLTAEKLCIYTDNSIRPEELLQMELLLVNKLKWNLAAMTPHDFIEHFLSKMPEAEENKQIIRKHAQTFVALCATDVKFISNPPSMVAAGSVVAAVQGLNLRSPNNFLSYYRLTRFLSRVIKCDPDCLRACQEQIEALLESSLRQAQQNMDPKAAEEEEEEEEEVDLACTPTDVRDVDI
UniProt P38936: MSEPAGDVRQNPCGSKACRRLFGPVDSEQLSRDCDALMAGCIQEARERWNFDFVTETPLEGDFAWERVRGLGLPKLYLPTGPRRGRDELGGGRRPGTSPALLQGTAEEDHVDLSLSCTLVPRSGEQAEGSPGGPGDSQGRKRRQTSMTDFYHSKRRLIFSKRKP
UniProt P33176: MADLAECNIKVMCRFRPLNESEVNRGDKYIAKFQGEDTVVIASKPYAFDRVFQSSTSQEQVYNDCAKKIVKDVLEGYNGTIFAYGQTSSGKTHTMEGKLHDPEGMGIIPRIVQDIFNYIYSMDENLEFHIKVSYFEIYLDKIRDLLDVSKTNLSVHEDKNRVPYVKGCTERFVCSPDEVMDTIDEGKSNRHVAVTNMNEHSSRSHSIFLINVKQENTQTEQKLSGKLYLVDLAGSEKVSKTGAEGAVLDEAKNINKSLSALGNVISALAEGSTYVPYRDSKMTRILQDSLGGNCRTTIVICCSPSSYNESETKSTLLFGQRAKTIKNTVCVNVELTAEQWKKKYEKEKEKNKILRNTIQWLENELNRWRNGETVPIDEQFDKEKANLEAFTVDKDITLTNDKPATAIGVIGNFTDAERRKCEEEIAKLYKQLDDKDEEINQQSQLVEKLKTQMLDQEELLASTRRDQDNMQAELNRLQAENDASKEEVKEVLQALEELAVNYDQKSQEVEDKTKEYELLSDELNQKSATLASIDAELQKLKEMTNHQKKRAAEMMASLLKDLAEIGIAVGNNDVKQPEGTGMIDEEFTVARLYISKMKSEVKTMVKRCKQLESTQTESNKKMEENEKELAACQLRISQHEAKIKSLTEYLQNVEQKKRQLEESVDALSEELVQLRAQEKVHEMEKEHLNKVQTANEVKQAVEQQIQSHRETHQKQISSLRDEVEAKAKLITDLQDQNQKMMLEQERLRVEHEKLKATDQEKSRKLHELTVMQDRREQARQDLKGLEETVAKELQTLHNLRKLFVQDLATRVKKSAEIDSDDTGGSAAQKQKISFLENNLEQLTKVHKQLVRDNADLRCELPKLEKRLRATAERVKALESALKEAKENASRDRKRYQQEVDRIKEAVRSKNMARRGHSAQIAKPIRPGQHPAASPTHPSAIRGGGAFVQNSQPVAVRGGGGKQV
UniProt P12004: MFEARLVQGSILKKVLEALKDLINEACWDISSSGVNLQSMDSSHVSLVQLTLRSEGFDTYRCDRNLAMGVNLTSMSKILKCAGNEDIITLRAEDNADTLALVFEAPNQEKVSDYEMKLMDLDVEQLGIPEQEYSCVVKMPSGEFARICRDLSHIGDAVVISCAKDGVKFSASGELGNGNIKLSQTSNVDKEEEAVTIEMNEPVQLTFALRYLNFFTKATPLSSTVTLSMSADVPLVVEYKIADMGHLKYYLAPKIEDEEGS

binding [1]: binds
Molecule: CDKN1A (from UniProt P38936 1-164)

binding [1]: binds
Molecule: KIF5B (from UniProt P33176 1-963)

binding [1]: binds
Molecule: PCNA (from UniProt P12004 1-261)

binding [2]: binds
B1: KIF4A (protein, UniProt O95239 1-1232)
chain: MKEEVKGIPVRVALRCRPLVPKEISEGCQMCLSFVPGEPQVVVGTDKSFTYDFVFDPSTEQEEVFNTAVAPLIKGVFKGYNATVLAYGQTGSGKTYSMGGAYTAEQENEPTVGVIPRVIQLLFKEIDKKSDFEFTLKVSYLEIYNEEILDLLCPSREKAQINIREDPKEGIKIVGLTEKTVLVALDTVSCLEQGNNSRTVASTAMNSQSSRSHAIFTISLEQRKKSDKNSSFRSKLHLVDLAGSERQKKTKAEGDRLKEGININRGLLCLGNVISALGDDKKGGFVPYRDSKLTRLLQDSLGGNSHTLMIACVSPADSNLEETLNTLRYADRARKIKNKPIVNIDPQTAELNHLKQQVQQLQVLLLQAHGGTLPGSITVEPSENLQSLMEKNQSLVEENEKLSRGLSEAAGQTAQMLERIILTEQANEKMNAKLEELRQHAACKLDLQKLVETLEDQELKENVEIICNLQQLITQLSDETVACMAAAIDTAVEQEAQVETSPETSRSSDAFTTQHALRQAQMSKELVELNKALALKEALARKMTQNDSQLQPIQYQYQDNIKELELEVINLQKEKEELVLELQTAKKDANQAKLSERRRKRLQELEGQIADLKKKLNEQSKLLKLKESTERTVSKLNQEIRMMKNQRVQLMRQMKEDAEKFRQWKQKKDKEVIQLKERDRKRQYELLKLERNFQKQSNVLRRKTEEAAAANKRLKDALQKQREVADKRKETQSRGMEGTAARVKNWLGNEIEVMVSTEEAKRHLNDLLEDRKILAQDVAQLKEKKESGENPPPKLRRRTFSLTEVRGQVSESEDSITKQIESLETEMEFRSAQIADLQQKLLDAESEDRPKQRWENIATILEAKCALKYLIGELVSSKIQVSKLESSLKQSKTSCADMQKMLFEERNHFAEIETELQAELVRMEQQHQEKVLYLLSQLQQSQMAEKQLEESVSEKEQQLLSTLKCQDEELEKMREVCEQNQQLLRENEIIKQKLTLLQVASRQKHLPKDTLLSPDSSFEYVPPKPKPSRVKEKFLEQSMDIEDLKYCSEHSVNEHEDGDGDDDEGDDEEWKPTKLVKVSRKNIQGCSCKGWCGNKQCGCRKQKSDCGVDCCCDPTKCRNRQQGKDSLGTVERTQDSEGSFKLEDPTEVTPGLSFFNPVCATPNSKILKEMCDVEQVLSKKTPPAPSPFDLPELKHVATEYQENKAPGKKKKRALASNTSFFSGCSPIEEEAH

Reference: publication doi:10.1101/2025.08.01.668243
